We go through one sequence from patent US5707800, “Retinoic acid response elements and assays employing same” (The Salk Institute for Biological Studies).

For at least one entry, the source does not settle the construct or the ends of the probe.

The subject of this series is RAR (retinoic acid receptor, subtype not stated for gel shift). As to the kind of experiment: EMSA. To be noted: saturates probe; affinity appeared greater than for betaRE; unlabeled RXRE competes at least as well as betaRE; purified recombinant protein; protein details: bacterially produced, partially purified; label: 32P. Background: In EMSA bound probe runs differently from free probe, usually more slowly.

As to “GCTGTCACAGGTCACAGGTCACAGGTCACAGTTCA (double strand) [CRBPII-RXRE]”, the binding result is reported as “binds”.
